Laboratory results from PMC7018950.

How the values were obtained:
[1] = biological target: His6-tagged snapdragon chalcone isomerase-like protein (His6-AmCHIL) (Antirrhinum majus); assay: affinity purification with mass spectrometry; Method I: crude extract of orange snapdragon petals with Ni2+-coated magnetic beads and His6-tagged bait, room temperature 1 h; wash 0.01 M potassium phosphate pH 7.0, 0.15 M NaCl; elution glycine-HCl pH 2.8; LC-MS/MS; beads without bait as negative control; only the target purified
[2] = biological target: His6-tagged snapdragon CHIL (Antirrhinum majus (snapdragon)); assay: affinity purification with mass spectrometry; Method I: His6 bait added to the crude extract of orange snapdragon petals with Ni2+-coated magnetic beads, room temperature 1 h; wash 0.01 M potassium phosphate pH 7.0, 0.15 M NaCl; elution 0.1 M glycine-HCl pH 2.8; LC-MS/MS; only the target purified

binding [1]: binds
B1: snapdragon chalcone synthase (AmCHS) of the petal extract (enzyme, UniProt P06515 1-390)
chain: MVTVEEVRRAQRAEGPATVLAIGTATPANCVDQSTYPDYYFRITNSEHMTELKEKFKRMCDKSNIKRRYMHLTEEILKENPAMCEYMAPSLDARQDIVVVEVPRLGKEAAQKAIKEWGQPKSKITHLVFCTTSGVDMPGADYQLTKLLGLRPSVKRFMMYQQGCFAGGTVLRMAKDLAENNAGARVLVVCSEITAVTFRGPADTHLDSLVGQALFGDGAAAVIVGSDPVVGVERPLFQIVTAAQTLLPDSHGAIDGHLREVGLTFHLLKDVPGLISKNIEKSLKEAFDPLGISDWNSVFWIAHPGGPAILDQVEEKLGLKPEKLRSTRQVLSEYGNMSSACVLFILDEMRKSSAKEGMSTTGEGLDWGVLFGFGPGLTVETVVLHSVPLN

binding [2]: binds
B2: AmCHS of snapdragon petal extract (enzyme, UniProt P06515 1-390)
chain: B1 chain

These are yes or no findings as the source states them, for the method shown. In cells and extracts the contact can be indirect. Here binding means that the protein was enriched with, or labelled near, the bait; the list need not be complete. Each block holds one binder with its values, some of them ahead of it.
